# Assay results: PMC7819943, “Rice protein-binding microarrays: a tool to detect cis-acting elements near promoter regions in rice”
# Some of the results follow.
# Target: T1, OsSMF1 (Oryza sativa, UniProt Q6ZLB0 1-436)
# T1 sequence: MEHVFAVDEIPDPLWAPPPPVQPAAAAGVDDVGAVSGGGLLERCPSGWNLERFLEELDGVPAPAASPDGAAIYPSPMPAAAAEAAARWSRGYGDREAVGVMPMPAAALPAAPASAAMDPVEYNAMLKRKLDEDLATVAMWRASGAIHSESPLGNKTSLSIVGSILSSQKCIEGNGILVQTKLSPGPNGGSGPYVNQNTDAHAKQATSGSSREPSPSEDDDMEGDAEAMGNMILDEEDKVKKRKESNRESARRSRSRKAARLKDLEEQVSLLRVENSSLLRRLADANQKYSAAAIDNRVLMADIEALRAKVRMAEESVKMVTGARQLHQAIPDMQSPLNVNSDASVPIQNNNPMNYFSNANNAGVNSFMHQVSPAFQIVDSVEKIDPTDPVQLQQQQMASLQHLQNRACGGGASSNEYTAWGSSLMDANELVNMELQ
# Assay: protein-binding microarray (RPBM); PBS, 2% BSA, 51.3 ng/ul salmon testes DNA, 50 uM zinc acetate, 200 nM TF, 25 C, 1 h; high values mean tight binding
# Details: protein: recombinant; tags: N-terminal polyhistidine and DsRed monomer fusion (pET32a); chain copies: 2; label: CyDye5-dUTP incorporated in the synthesized complementary strand; 3' TTTTT single-stranded linker to array surface; dsDNA, one strand shown
# Method in brief: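 Per-feature fluorescence intensity (arbitrary units), read on an Axon 4000B scanner, is the binding signal. Transcription factors carrying an N-terminal polyhistidine tag and DsRed fusion were expressed in E. coli BL21-CodonPlus and purified on Ni–NTA. A custom Agilent array, made double-stranded by primer extension with Cy5-dUTP and blocked with 2% BSA, was incubated with 200 nM protein in PBS, 2% BSA, salmon testes DNA and 50 µM zinc acetate at 25 °C for 1 h and then washed.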
row,Sequence,binding signal
1,ATCACTGGTGAGGCAAGCTATGCTGCCATTTATCCCTGGGCGGAGTCACCTAGTGCAG,31200 fluorescence intensity (a.u.)
2,TCCCAATTGACTAGAGGATGCTTCAGAGATGAAAACATGGCGGAGTCACCTAGTGCAG,3190 fluorescence intensity (a.u.)
3,ATCATGGCCGATCTCGCACGGTGGACGTCGCTGACAGGTGCGGAGTCACCTAGTGCAG,4270 fluorescence intensity (a.u.)
4,TCGACATAAGGAGGACGAGCGCCGCGTCGTGACGGATGCCCGGAGTCACCTAGTGCAG,3230 fluorescence intensity (a.u.)
5,ATGTTTCTAATTTCCCTAGATTCAAGTGACACGTTGCTGACGGAGTCACCTAGTGCAG,7470 fluorescence intensity (a.u.)
6,AACTTAATTATATAGTTTAACATCATCATATTTATATTTGCGGAGTCACCTAGTGCAG,18500 fluorescence intensity (a.u.)
7,ACTTCCAGGAAAGTACCTCTCCCTGACGTGGGCTTAGATTCGGAGTCACCTAGTGCAG,9750 fluorescence intensity (a.u.)
8,AAAACGACCGGTTTTGACGTAAATCCACAAGGCGTTATGACGGAGTCACCTAGTGCAG,58400 fluorescence intensity (a.u.)
9,AATCAACTTGACGTGGAGATGAAATCTCCTTTCCTGTCTTCGGAGTCACCTAGTGCAG,5600 fluorescence intensity (a.u.)
10,TCTGGTCCCATCTGTCATACACACATTACGTCTTGTAGTCCGGAGTCACCTAGTGCAG,4560 fluorescence intensity (a.u.)
11,ATCGATTAGTGCGTGTTGCTCTTGTACACGACGTCCCGGGCGGAGTCACCTAGTGCAG,3300 fluorescence intensity (a.u.)
12,CTTACTTTATTATCCAAAATATTTTAAGCACAACTTTTCACGGAGTCACCTAGTGCAG,35600 fluorescence intensity (a.u.)
13,CGTGGTGAAGTGGTGGGGAGTTGCGGGAGGGAGGCATAGGCGGAGTCACCTAGTGCAG,3210 fluorescence intensity (a.u.)
14,GACATGGCACGTTGACTTGGTCCAGCTGTGCTGACGTGGCCGGAGTCACCTAGTGCAG,36000 fluorescence intensity (a.u.)
15,CAACTCAACCACGTAGAAACGTGCGGGTTTACACGGTGGCCGGAGTCACCTAGTGCAG,4280 fluorescence intensity (a.u.)
16,ATCGGACAAATTTTAGTAAGTGACGTTAACTTCTGCATTACGGAGTCACCTAGTGCAG,26000 fluorescence intensity (a.u.)
17,CCATTGCATGGATGGTACATACAACAAAACACGCATGCATCGGAGTCACCTAGTGCAG,3260 fluorescence intensity (a.u.)
18,TACTTTATATAGATGTTCAAACATTCGATATGACATGCTGCGGAGTCACCTAGTGCAG,45300 fluorescence intensity (a.u.)
19,TTGTAAGATTTTGGCTCCCCAAATCTATCGTCAGCTATTTCGGAGTCACCTAGTGCAG,3470 fluorescence intensity (a.u.)
20,AAAGTCCGCTCGTGTTATTGGTAATTGAACTACTAAGCTACGGAGTCACCTAGTGCAG,41300 fluorescence intensity (a.u.)
21,ATACCATGAGGTTGACGTCAACAATTTCGTAGCTGTGTAACGGAGTCACCTAGTGCAG,5700 fluorescence intensity (a.u.)

row,Sequence,binding signal
1,GACGCGTACGCACGGTGGGACGCGGTGGTGGGGTGCTGGGCGGAGTCACCTAGTGCAG,3920 fluorescence intensity (a.u.)
2,ACAACCCAAAGCGTGGCAGTGGCGAAGCCAGCTGGCACCACGGAGTCACCTAGTGCAG,3860 fluorescence intensity (a.u.)
3,TGCTCCGCTGCTGTTCGGGCCCCACGTAGTCGTGGTCCATCGGAGTCACCTAGTGCAG,3960 fluorescence intensity (a.u.)
4,GTTTTATTGTTGAATTTTATATATTGTCACGTCCCCTTTTCGGAGTCACCTAGTGCAG,4350 fluorescence intensity (a.u.)
5,AGAAATCAACGCGGAATTGAGCTCGATTCGAGCTTATCTGCGGAGTCACCTAGTGCAG,19800 fluorescence intensity (a.u.)
6,TGGTGCCTGGTTTCACCTTGTATGCATGCCACGTGAGATCCGGAGTCACCTAGTGCAG,8150 fluorescence intensity (a.u.)
7,ACTACAAGAAATTTGGCCTTCTATGACAAAATTCATATGACGGAGTCACCTAGTGCAG,3540 fluorescence intensity (a.u.)
8,ATTTAAGGGTTATTAGATGGATCCATGTCACTACAAATATCGGAGTCACCTAGTGCAG,7460 fluorescence intensity (a.u.)
9,GGGAGAGGAGGGGAGAGGAGGCTGACGTGGCCAGCTGATACGGAGTCACCTAGTGCAG,19200 fluorescence intensity (a.u.)
10,CCTCGCTCTCCATGGTGGTGGTGGTGGTCAGGTGGTGGGGCGGAGTCACCTAGTGCAG,4210 fluorescence intensity (a.u.)
11,CAAGCTCAAGATGATGACGATGACCATGTCCGACTGCTCTCGGAGTCACCTAGTGCAG,5560 fluorescence intensity (a.u.)
12,AGACTTCGAATCCAAGTCGTTTAGCCAACCACCTTGTGGACGGAGTCACCTAGTGCAG,6440 fluorescence intensity (a.u.)
13,GTGCTATATCTTGCAGTGCATAGCCAGTACTGTCACTCAGCGGAGTCACCTAGTGCAG,4030 fluorescence intensity (a.u.)
14,CTTCGAAACGCAGCGTGCGCGGCCACAACCCACGTCCGATCGGAGTCACCTAGTGCAG,3480 fluorescence intensity (a.u.)
15,TGTTGCCACGCTGGACCGCCACGTAAGCCCGTCAACCCGGCGGAGTCACCTAGTGCAG,35500 fluorescence intensity (a.u.)
16,AGGGCCCAACACCCGGTCCACGGTGGACCGCGTCCACAGACGGAGTCACCTAGTGCAG,3830 fluorescence intensity (a.u.)
17,CAATGGGCGCGCGCCACATCACCTCTGCCTTCCCCTTTCCCGGAGTCACCTAGTGCAG,14200 fluorescence intensity (a.u.)
18,AGCTCGAGGCCGACGAGGAAGAGGAAGAACGTCGCCGCTGCGGAGTCACCTAGTGCAG,7610 fluorescence intensity (a.u.)
19,CCGCTCCCACGCCCTTCCTCTTGCCAGCTCCTCAAGCTCCCGGAGTCACCTAGTGCAG,4130 fluorescence intensity (a.u.)
20,GATGCATTTATCCTTATCCATCACACGCACACACGGCACACGGAGTCACCTAGTGCAG,3310 fluorescence intensity (a.u.)
21,GGGATCTGTTTTCCTACTCACGTGTATTAACTAAACACTCCGGAGTCACCTAGTGCAG,4900 fluorescence intensity (a.u.)

# Rewritten as tab-separated lines: part of the list above.
row	Sequence	binding signal
1	GACGCGTACGCACGGTGGGACGCGGTGGTGGGGTGCTGGGCGGAGTCACCTAGTGCAG	3920 fluorescence intensity (a.u.)
3	TGCTCCGCTGCTGTTCGGGCCCCACGTAGTCGTGGTCCATCGGAGTCACCTAGTGCAG	3960 fluorescence intensity (a.u.)
6	TGGTGCCTGGTTTCACCTTGTATGCATGCCACGTGAGATCCGGAGTCACCTAGTGCAG	8150 fluorescence intensity (a.u.)
8	ATTTAAGGGTTATTAGATGGATCCATGTCACTACAAATATCGGAGTCACCTAGTGCAG	7460 fluorescence intensity (a.u.)
10	CCTCGCTCTCCATGGTGGTGGTGGTGGTCAGGTGGTGGGGCGGAGTCACCTAGTGCAG	4210 fluorescence intensity (a.u.)
16	AGGGCCCAACACCCGGTCCACGGTGGACCGCGTCCACAGACGGAGTCACCTAGTGCAG	3830 fluorescence intensity (a.u.)
18	AGCTCGAGGCCGACGAGGAAGAGGAAGAACGTCGCCGCTGCGGAGTCACCTAGTGCAG	7610 fluorescence intensity (a.u.)
20	GATGCATTTATCCTTATCCATCACACGCACACACGGCACACGGAGTCACCTAGTGCAG	3310 fluorescence intensity (a.u.)
21	GGGATCTGTTTTCCTACTCACGTGTATTAACTAAACACTCCGGAGTCACCTAGTGCAG	4900 fluorescence intensity (a.u.)
